Data published in publication doi:10.1101/2020.10.11.334888 (bioRxiv, 2020).
Results are given in words; binding and its absence hold for the method and conditions named. Binding seen in cells or lysates may run through a third protein. Some entries that bind do so weakly or less than the wild type.

Sequences of proteins named here, by UniProt entry; tags and fusion partners are left off. A change or cut given only in a name is not applied to a line headed by its entry.
UniProt P15928, whole entry, looked up, stated change not applied: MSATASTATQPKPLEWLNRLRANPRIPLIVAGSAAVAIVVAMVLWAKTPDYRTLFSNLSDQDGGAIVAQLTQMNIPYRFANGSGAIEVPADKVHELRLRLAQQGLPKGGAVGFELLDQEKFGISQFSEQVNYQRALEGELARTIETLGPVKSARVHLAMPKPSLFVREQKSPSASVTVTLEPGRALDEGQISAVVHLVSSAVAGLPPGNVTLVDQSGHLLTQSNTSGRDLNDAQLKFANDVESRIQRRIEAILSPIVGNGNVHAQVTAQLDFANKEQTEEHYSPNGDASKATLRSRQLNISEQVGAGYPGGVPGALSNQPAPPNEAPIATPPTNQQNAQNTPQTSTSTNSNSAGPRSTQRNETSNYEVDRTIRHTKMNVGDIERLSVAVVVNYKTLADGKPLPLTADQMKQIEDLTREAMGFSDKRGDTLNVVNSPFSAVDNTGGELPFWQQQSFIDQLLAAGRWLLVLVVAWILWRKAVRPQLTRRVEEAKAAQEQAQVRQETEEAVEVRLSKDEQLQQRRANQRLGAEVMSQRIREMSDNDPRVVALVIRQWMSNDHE

Target: FliF(I252C/H263C) expressed from pMMiF011 in Salmonella TH12415 (ΔfliF) (Salmonella enterica serovar Typhimurium) (UniProt P15928)
Experiment: cross-linking

Question: With “FliF(I252C/H263C) expressed from pMMiF011 in Salmonella TH12415 (ΔfliF) (from UniProt P15928 1-560)” as the substance, how does the binding read?
Answer: binds
